Results from patent publication US20100151566A1.
These are yes or no findings as the source states them, for the method shown. Some binding calls cover weakened binding; strength is not graded here.

Chains of the proteins cited; added tags and fusions are not shown. Lines headed by an entry give the natural chain unless they say otherwise; changes in a name come on top. A line that says so, or that is headed by a name, gives the form on record, which may keep a tag or linker.
human VEGF (Peprotech), isoform not stated (P15692, form named): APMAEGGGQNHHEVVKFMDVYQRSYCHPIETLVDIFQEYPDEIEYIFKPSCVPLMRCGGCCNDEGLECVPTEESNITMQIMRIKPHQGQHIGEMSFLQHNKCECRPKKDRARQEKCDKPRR

Target: human VEGF (Peprotech), isoform not stated (human) (UniProt P15692)
Test: ELISA with metabolized medium of P. pastoris; positive = at least 4 times the negative controls

B1: scFv 2H1-Pp17 (scFv)
scFv: QQVQLVQSGAEVKKPGESLKISCKGSGYSFTSYWIGWVRQMPGKGLEWMGIIYPGDSDTRYSPSFQGQVTISADKSISTAYLQWSSLKASDTAMYYCARLVVRDTEIWGQGTMVTVSSAPQAKSSGSGSESKVDQAVVTQEPSLTVSPGGTVTLTCASSIGAVTSGNYPNWFQQRPGQPPRALIYSTSNKHSWTPARFSGSLLGGKAALTLSGAQPEDEAEYYCLLSYSGARPVFGGGTKLTVLGAAAGSEQKLISEEDLNSHHHHHH
  binding: binds
